From US20100092456A1, “METHODS OF TREATMENT” (priority 2006, published 2010)
At least one structure is not confirmed: it was looked up by name or label, or the drawing left a doubt.

Experiments:
[1] = tested on: nuclear PtdIns-kinases; assay: Inhibition of nuclear PtdIns-kinases; details: our unpublished data
[2] = tested on: PtdIns4P and PtdIns5P in the CEF of MEL cells; assay: Mass assay of PtdIns4P and PtdIns5P in the CEF of MEL cells with or without UV irradiation; assay type: cell-based, Murine; details: MEL cells preincubated with wortmannin (200 nM and 5 μM) or curcumin (100 μM); 200 J/m UV; CEF after 30 minutes
Protocol: (§1) D) MEL cells were preincubated with either vehicle (DMSO) or wortmannin (200 nM and 5 μM) were irradiated with 200 J/m of UV light. After 30 minutes the CEF was isolated and a mass assay was used to determine the levels of PtdIns4P and PtdIns5P (expressed as % of control non-irradiated cells. The results are calculated from 3 independent experiments).
as §1, with “E)” for “D)”, “(ethanol)” for “(DMSO)”, “curcumin (100” for “wortmannin (200 nM and 5”, “irradiation.” for “light.”, “control, non curcumin-treated nor non UV-irradiated” for “control non-irradiated”
C) MEL cells were transiently transfected to express EGFP, EGFP-type II b PIP kinase and EGFP-IpgD/IpgE. In addition MEL cells were transfected with pSuper-IIβRNAi. […] A mass assay was used to determine the level of PtdIns5P (expressed as % of control non-irradiated cells. The results are calculated from 3 independent experiments). […]
MEL cells were washed, twice in ice cold PBS before their fractionation using a detergent-free hypotonic buffer. […] The protein content of all fractions was determined using the Bradford reagent (BioRad). PtdIns4P and PtdIns5P were measured using in vitro mass assays employing recombinant type I and type II PIP kinases, respectively. […]

[3] = tested on: ING2; assay: Western blot of endogenous ING2 associated with the CEF of MEL cells; assay type: cell-based, Murine; details: 200 J/m UV, NAC 5 mM 4 hours, wortmannin 200 nM and 5 μM, curcumin 100 μM
Protocol: FIG. 4. A) Exponentially growing MEL cells were irradiated with either 200 J/m of UV light or 10 Gy of gamma radiation. After 30 minutes the CEF was isolated and the subjected to SDS-PAGE followed by transfer of the separated proteins to a nitrocellulose membrane. Western blotting for endogenous ING2 and histone 4 proteins was performed. Representative western blots are shown. B) Exponentially growing MEL cells were incubated in the absence or presence of N-acetyl cysteine (NAC) (5 mM) for 4 hours prior to a control irradiation or exposed to 200 J/m of UV light before the isolation of the CEF. Differentiated MEL cells were incubated in the absence or presence of H2O2 (500 μM) for 15 minutes prior to the isolation of the CEF. Proteins in the CEF were subjected to SDS-PAGE followed by transfer to a nitrocellulose membrane. Western blotting for endogenous ING2 and histone 4 proteins was performed. Representative western blots are shown. […] Proteins were analysed by standard western blotting procedures employing the following antibodies: anti-tubulin and anti-flag (both from Sigma), anti-actin (Chemicon International), anti-histone 4 (Upstate Biotechnology), anti-phospho p54, anti-phospho p46, anti-phospho p38, total p54, total p46 and total p38 (all from Cell Signalling Technology) anti-ING2, anti EGFP (Clontech), anti-type II β PIP kinase, anti-GST and anti-myc (both generated in house).

COC[C@H]1OC(=O)c2coc3c2[C@@]1(C)C1=C(C3=O)[C@@H]2CCC(=O)[C@@]2(C)C[C@H]1OC(C)=O [wortmannin]
concentration able to inhibit nuclear PtdIns-kinases [1]: above 500 μM
UV light-induced accumulation of PtdIns4P [2]: inhibited
UV light-induced accumulation of PtdIns5P [2]: inhibited
UV-induced translocation of endogenous ING2 to the CEF [3]: completely inhibited
